Reference: the supplement of paper PMC10735217
Where a name gives a salt, the structure may show the parent alone. The list shows a part of the results. Repeats in this data set agree poorly, so a single value says little.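 In a drug-repurposing library screen, luminescence reads luciferase driven by eight TEAD-binding elements, stably integrated into human kidney-derived cells. Compounds scoring over five robust Z scores above the plate mean are called hits.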

Test system: HEK293A TEAD-LUC reporter
Experiment: TEAD-luciferase reporter activity (YAP activation), robust Z score vs plate; higher = stronger YAP/TEAD activation
Details: 24 h

| Structure (SMILES) | TEAD-luciferase reporter activity (compound concentration: 200 nM) | TEAD-luciferase reporter activity (compound concentration: 2 uM) | TEAD-luciferase reporter activity (compound concentration: 10 uM) |
| --- | --- | --- | --- |
| CN1CCC(CNc2ccc3ncc(-c4cccc(OC(F)(F)F)c4)n3n2)CC1 | inactive: -0.923 | inactive: -1.53 | inactive: -0.415 |
| CC1CC=NN1C(=O)c1cccnc1 (centres undefined) | inactive: -0.431 | inactive: -0.31 | inactive: -0.174 |
| N#CCC(=O)NN | inactive: -0.477 | inactive: -1.36 | inactive: -1.39 |
| Cc1ccccc1OCC(O)CN1CCCC1 (centres undefined) | inactive: -1.62 | inactive: 1.28 | inactive: 1.12 |
| Nc1nc2c(ncn2[C@H]2CC(F)[C@@H](CO)O2)c(=O)[nH]1 (some centres undefined) [lagociclovir valactate] | inactive: -1.51 | inactive: 0.00719 | inactive: 0.619 |
| CO[C@@H](Cc1ccc(NCCCc2ccc(OS(C)(=O)=O)cc2)cc1)C(=O)O | inactive: 0.951 | inactive: -1.22 | inactive: -1.56 |
| CCCCCCCCCCCCCCCC[N+](C)(C)Cc1ccccc1 | inactive: 0.0898 | inactive: 0.0977 | inactive: 1.08 |
| CN1CCC(COc2cnc(-c3cccc(Cn4nc(-c5cccc(C#N)c5)ccc4=O)c3)nc2)CC1 [Tepotinib] | inactive: -0.977 | inactive: -0.61 | inactive: -1.37 |
| CN(C)C(=O)COC(=O)Cc1ccc(OC(=O)c2ccc(NC(=N)N)cc2)cc1 | – | inactive: -0.906 | – |
| CN(C)C(=O)COC(=O)Cc1ccc(OC(=O)c2ccc(NC(=N)N)cc2)cc1 [Camostat mesylate] | inactive: -0.941 | inactive: -0.395 | inactive: -0.0062 |
| CC(C)(O)CCOc1c(-c2ccc(S(C)(=O)=O)cc2)cnn(-c2ccc(F)c(F)c2)c1=O | inactive: -1.38 | inactive: -1.42 | inactive: 0.883 |
| COc1ccc(N2CCN(C(=O)CCCc3c[nH]c4ccccc34)CC2)cc1 | inactive: -2.28 | inactive: -1.61 | inactive: 3.21 |
| CC(CN1c2ccccc2Sc2ccccc21)N(C)C (centres undefined) [Phenergan58-33-3] | inactive: 0.617 | – | active: 13.8 |
| COc1ccc(Cl)cc1N1CCN(CCCNc2nccc(C(N)=O)n2)CC1 | inactive: -0.8 | inactive: -0.823 | inactive: -1.16 |
| CC(=O)NC[C@H]1CN(c2ccc3c(c2)CCN3C(=O)CO)C(=O)O1 | inactive: -1.32 | inactive: -1.62 | inactive: 0.0502 |
| CCCCOc1ccc(CC(=O)NO)cc1 [bufexamac] | inactive: 0.208 | inactive: -1.31 | inactive: 0.325 |
| c1cc2c3c(cccc3c1)C(NCCCCn1ccnc1)=N2 | inactive: 0.0234 | inactive: 0.837 | inactive: -0.452 |
| N=C(N)NCC1COc2ccccc2O1 (centres undefined) | inactive: -3.39 | inactive: -0.0376 | inactive: 3.45 |
| CCN(C/C=C\c1cc(Cl)c(C2C3CC4CC(C3)CC2C4)c(Cl)c1)C1CCCCC1 (centres undefined) | inactive: -1.21 | inactive: 1.08 | inactive: -1.13 |
| C=CC(=O)Nc1cc2c(Nc3ccc(F)c(Cl)c3)ncnc2cc1C#CC(C)(C)N1CCN(C)CC1 | inactive: -1.27 | inactive: -1.63 | inactive: -2.09 |

| Structure (SMILES) | TEAD-luciferase reporter activity (compound concentration: 200 nM) | TEAD-luciferase reporter activity (compound concentration: 2 uM) | TEAD-luciferase reporter activity (compound concentration: 10 uM) |
| --- | --- | --- | --- |
| COc1c(N2CC3(CC3)[C@](C)(N)C2)c(F)cc2c(=O)c(C(=O)O)cn([C@@H]3C[C@@H]3F)c12 | inactive: -0.983 | – | inactive: 1.69 |
| CC(C)Oc1ccc(-c2nc(-c3cccc4c3CC[C@@H]4NCCO)no2)cc1C#N [Ozanimod] | inactive: -0.133 | inactive: -0.349 | inactive: 3.1 |
| COC[C@H](C)Oc1cc(Oc2cnc(C(=O)N3CCC3)cn2)cc(C(=O)Nc2ccc(C)cn2)c1 | inactive: 0.0791 | inactive: -0.234 | inactive: -1.41 |
| CSCC[C@H](NC=O)C(=O)N[C@@H](CC(=O)O)C(=O)NCC(=O)N[C@@H](CS)C(=O)N[C@@H](CCC(=O)O)C(=O)N[C@@H](CC(C)C)C(=O)O | inactive: -0.78 | inactive: -0.545 | inactive: -0.79 |
| COc1cccc(C(=O)Nc2ccc(OCCN3CCOCC3)c(-c3ccnn3C)c2)c1 [temanogrel] | inactive: 0.457 | inactive: 0.151 | inactive: 1.31 |
| CN1Cc2cc(C3=NNC(=O)CC3)ccc2NC1=O | inactive: 0.061 | inactive: -0.682 | inactive: -0.0119 |
| O=C(NO)c1ccc(O)c(O)c1 [Didox] | inactive: -0.428 | inactive: -0.749 | inactive: 0.545 |
| Cc1ccccc1C(=O)N1CCC2(CC1)Cc1ccccc1NC2=O | inactive: -2.55 | – | – |
| NC(CCC(=O)O)C(=O)O (centres undefined) | inactive: -0.515 | – | inactive: 0.579 |
| Cc1ccc2nc(N)[nH]c(=O)c2c1Sc1ccncc1 [Nolatrexed dihydrochloride] | inactive: -0.0326 | inactive: 0.197 | inactive: 1.34 |
| CCC(=O)[C@@]1(O)CC[C@H]2[C@@H]3CCC4=CC(=O)CC[C@]4(C)C3[C@@H](O)C[C@@]21C (some centres undefined) | inactive: 0.383 | inactive: -1.08 | inactive: 0.409 |
| CC(C(=O)O)c1ccc(CC2CCCC2=O)cc1 (centres undefined) [loxoprofen] | inactive: -0.202 | inactive: 0.23 | inactive: 2.26 |
| CC(C)(C)OC(=O)CN(C(=O)CNC(=O)Nc1cccc(C(=O)O)c1)c1ccccc1C(=O)c1ccccc1 | inactive: -0.255 | inactive: -1.08 | inactive: -1.02 |
| O=C(c1ccc(Cl)cc1)N1CCC2(CC1)Cc1ccccc1NC2=O | inactive: -2.8 | – | inactive: 1.68 |
| COc1ccc(-c2cc(=O)c3c(O)c(OC)c(O)cc3o2)cc1OC | inactive: 0.322 | inactive: -0.116 | inactive: -2.36 |
| COC(=O)C1=C(C)NC(C)=C(C(=O)O[C@@H]2CCCN(Cc3ccccc3)C2)[C@@H]1c1cccc([N+](=O)[O-])c1 [benidipine hydrochloride] | inactive: -1.38 | inactive: 0.178 | inactive: 0.535 |
| O=C(O)C[C@H]1CCCCN1C(=O)/C=C/c1c(-c2ccccc2)nn2ccccc12 | inactive: -1.14 | inactive: 1.6 | inactive: 0.408 |
| Cc1ccc2oc(CN(Cc3ccccc3)C(=O)Nc3c(F)cc(F)cc3F)c(-c3ccc(Cl)cc3)c2c1 | inactive: 0.085 | inactive: 0.362 | inactive: 2.05 |
| CC(C(=O)O)c1ccc(C2=CCCCC2)cc1 (centres undefined) | inactive: -0.682 | inactive: -0.443 | inactive: 0.509 |
| CCn1cc(C(=O)O)c(=O)c2ccc(-c3ccncc3)cc21 | inactive: -0.301 | inactive: -0.625 | inactive: 4.8 |

Taken from the entries so far for reference:

| Structure (SMILES) | TEAD-luciferase reporter activity (compound concentration: 200 nM) | TEAD-luciferase reporter activity (compound concentration: 2 uM) | TEAD-luciferase reporter activity (compound concentration: 10 uM) |
| --- | --- | --- | --- |
| CC(C(=O)O)c1ccc(CC2CCCC2=O)cc1 (centres undefined) [loxoprofen] | inactive: -0.202 | inactive: 0.23 | inactive: 2.26 |
| CC(C)(C)OC(=O)CN(C(=O)CNC(=O)Nc1cccc(C(=O)O)c1)c1ccccc1C(=O)c1ccccc1 | inactive: -0.255 | inactive: -1.08 | inactive: -1.02 |
| O=C(c1ccc(Cl)cc1)N1CCC2(CC1)Cc1ccccc1NC2=O | inactive: -2.8 | – | inactive: 1.68 |
| COc1ccc(-c2cc(=O)c3c(O)c(OC)c(O)cc3o2)cc1OC | inactive: 0.322 | inactive: -0.116 | inactive: -2.36 |

Continued:

| Structure (SMILES) | TEAD-luciferase reporter activity (compound concentration: 200 nM) | TEAD-luciferase reporter activity (compound concentration: 2 uM) | TEAD-luciferase reporter activity (compound concentration: 10 uM) |
| --- | --- | --- | --- |
| c1ccc(CCNc2nc(-c3ccccc3)cs2)cc1 [fanetizole] | active: 6.16 | inactive: 1.65 | inactive: -0.302 |
| Cc1ccccc1N1CCN(C2CCc3cc(O)ccc3C2)CC1 (centres undefined) [Tolnapersine] | inactive: -0.214 | – | inactive: -1.21 |
| O=C(CCCCCCNC(=O)c1cnc(N(c2ccccc2)c2ccccc2)nc1)NO [ricolinostat] | – | active: 14 | – |
| O=C(CCCCCCNC(=O)c1cnc(N(c2ccccc2)c2ccccc2)nc1)NO | inactive: -1.07 | – | active: 7.04 |
| CCN(CC)CCCNC(=O)C1Cc2cc(OC)c(OC)cc2S(=O)(=O)O1 (centres undefined) | inactive: -1.25 | inactive: 1.36 | inactive: 1.64 |
| CN(C)CCCN1c2ccccc2CCc2ccccc21 [Imipramine hydrochloride] | – | inactive: 1.09 | – |
| CN(C)CCCN1c2ccccc2CCc2ccccc21 | inactive: 0.0579 | – | inactive: 1.78 |
| O=C1N(c2ccccc2)c2ccccc2C12CCN(CC1CCCCC1)C2 (centres undefined) | inactive: -2.64 | – | inactive: 0.433 |
| O=C1CCc2c(Oc3ccc4c(c3)C3C(O4)C3c3nc4ccc(C(F)(F)F)cc4[nH]3)ccnc2N1 (centres undefined) | inactive: -0.173 | inactive: -2.16 | inactive: 3.15 |
| CC[C@H]1OC(=O)C(C)[C@@H](OC2C[C@@](C)(OC)C(O)[C@H](C)O2)[C@H](C)[C@@H](OC2OC(C)CC(N(C)C)[C@H]2O)[C@](C)(O)CC(C)/C(=N/OC)C(C)C(O)[C@]1(C)O (some centres undefined) [Lexithromycin] | inactive: -1.31 | – | inactive: 3.21 |
| COC(=S)NCCn1c([N+](=O)[O-])cnc1C | inactive: -2.09 | inactive: 2.93 | inactive: 0.934 |
| CC(=O)CCN1CCC2=C(C)c3ccccc3C2C1 (centres undefined) | inactive: 1.92 | inactive: -2.17 | inactive: 3.05 |
| O=C(O)c1ccc(OCCc2c(CCNS(=O)(=O)Cc3ccc(Cl)c(Cl)c3)n(C(c3ccccc3)c3ccccc3)c3ccc(Cl)cc23)cc1 | inactive: -2.73 | inactive: 0.473 | inactive: 0.197 |
| COc1ccccc1N1CCN(CC(O)COc2cc(OC)c(OC)c(OC)c2)CC1 (centres undefined) [Enciprazine] | inactive: -0.437 | inactive: 1.25 | inactive: 1.43 |
| CCOc1cc(N)c(Cl)cc1C(=O)NCC1CN(Cc2ccc(F)cc2)CCO1 (centres undefined) | inactive: -2.59 | – | inactive: -0.28 |
| CCOc1cc(N)c(Cl)cc1C(=O)NCC1CN(Cc2ccc(F)cc2)CCO1 (centres undefined) [Mosapride citrate] | – | inactive: -2.29 | – |
| COc1ccc2cc1Oc1ccc(cc1)C[C@H]1c3c(cc4c(c3Oc3cc5c(cc3OC)CCN(C)[C@@H]5C2)OCO4)CCN1C [Cepharanthine] | inactive: -0.817 | inactive: 0.835 | inactive: 4.15 |
| Cc1ncc(C[n+]2csc(CCO)c2C)c(N)n1 | – | inactive: 0.643 | – |
| Cc1ncc(C[n+]2csc(CCO)c2C)c(N)n1 [Thiamine HCl (Vitamin B1)] | inactive: -1.03 | – | inactive: -0.148 |
